Test results as given in patent US20130108639A1.
No constants are given. Whether binding was seen depends on the method and setting. Some results given as binding are weak or reduced against the parent protein; the word gives no strength. Sequences can lack the tags named with a protein.

T1: Annexin A1 (UniProt P04083)
T1 sequence (looked up): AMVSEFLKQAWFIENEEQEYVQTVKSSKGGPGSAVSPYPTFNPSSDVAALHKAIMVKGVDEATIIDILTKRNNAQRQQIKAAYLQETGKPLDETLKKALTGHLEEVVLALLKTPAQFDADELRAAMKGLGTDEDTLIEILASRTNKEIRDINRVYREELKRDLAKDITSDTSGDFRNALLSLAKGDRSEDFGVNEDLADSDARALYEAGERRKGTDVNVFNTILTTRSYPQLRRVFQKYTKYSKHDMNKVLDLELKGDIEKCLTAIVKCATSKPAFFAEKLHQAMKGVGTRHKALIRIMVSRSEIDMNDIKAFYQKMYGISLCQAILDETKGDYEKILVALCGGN

B1: Annexin A1 binding polypeptide Number 1 (QWGHTLW) (peptide)
peptide: QWGHTLW
B2: Annexin A1 binding polypeptide Number 10 (SLNSIL) (peptide)
peptide: SLNSIL
B3: Annexin A1 binding polypeptide Number 11 (NLNAWF) (peptide)
peptide: NLNAWF
B4: Annexin A1 binding polypeptide Number 12 (VEWPWW) (peptide)
peptide: VEWPWW
B5: Annexin A1 binding polypeptide Number 13 (WLWPRL) (peptide)
peptide: WLWPRL
B6: Annexin A1 binding polypeptide Number 14 (IDYGLF) (peptide)
peptide: IDYGLF
B7: Annexin A1 binding polypeptide Number 15 (VEGQQWW) (peptide)
peptide: VEGQQWW
B8: Annexin A1 binding polypeptide Number 16 (WMGHSAW) (peptide)
peptide: WMGHSAW
B9: Annexin A1 binding polypeptide Number 17 (GIHHPIW) (peptide)
peptide: GIHHPIW
B10: Annexin A1 binding polypeptide Number 18 (WGGHPIW) (peptide)
peptide: WGGHPIW
B11: Annexin A1 binding polypeptide Number 19 (PWAKIFW) (peptide)
peptide: PWAKIFW
B12: Annexin A1 binding polypeptide Number 2 (KWGHEVW) (peptide)
peptide: KWGHEVW
B13: Annexin A1 binding polypeptide Number 20 (MGSKMWG) (peptide)
peptide: MGSKMWG
B14: Annexin A1 binding polypeptide Number 21 (MLWEDQD) (peptide)
peptide: MLWEDQD
B15: Annexin A1 binding polypeptide Number 22 (ELFDGYD) (peptide)
peptide: ELFDGYD
B16: Annexin A1 binding polypeptide Number 23 (WPWEANH) (peptide)
peptide: WPWEANH
B17: Annexin A1 binding polypeptide Number 24 (EQYGFPF) (peptide)
peptide: EQYGFPF
B18: Annexin A1 binding polypeptide Number 25 (SGFGHMIW) (peptide)
peptide: SGFGHMIW
B19: Annexin A1 binding polypeptide Number 26 (ETRFHAIW) (peptide)
peptide: ETRFHAIW
B20: Annexin A1 binding polypeptide Number 27 (MLHHHQRE) (peptide)
peptide: MLHHHQRE
B21: Annexin A1 binding polypeptide Number 28 (ALHNEPHT) (peptide)
peptide: ALHNEPHT
B22: Annexin A1 binding polypeptide Number 29 (AFHNDPAE) (peptide)
peptide: AFHNDPAE
B23: Annexin A1 binding polypeptide Number 3 (WWGHEQW) (peptide)
peptide: WWGHEQW
B24: Annexin A1 binding polypeptide Number 30 (LLFSDIGN) (peptide)
peptide: LLFSDIGN
B25: Annexin A1 binding polypeptide Number 31 (LVLKGKWH) (peptide)
peptide: LVLKGKWH
B26: Annexin A1 binding polypeptide Number 32 (…) (peptide)
peptide: SGNGKPFWM
B27: Annexin A1 binding polypeptide Number 33 (…) (peptide)
peptide: IQRGGVDWS
B28: Annexin A1 binding polypeptide Number 34 (…) (peptide)
peptide: RDSQSWSWS
B29: Annexin A1 binding polypeptide Number 35 (…) (peptide)
peptide: LLESQNPQD
B30: Annexin A1 binding polypeptide Number 36 (…) (peptide)
peptide: IINGWNPIW
B31: Annexin A1 binding polypeptide Number 37 (…) (peptide)
peptide: DWTTAYGPS
B32: Annexin A1 binding polypeptide Number 38 (…) (peptide)
peptide: IYDGNWSYWH
B33: Annexin A1 binding polypeptide Number 39 (…) (peptide)
peptide: STDSNWFFNA
B34: Annexin A1 binding polypeptide Number 4 (PWGHEIW) (peptide)
peptide: PWGHEIW
B35: Annexin A1 binding polypeptide Number 40 (…) (peptide)
peptide: MPENWISWYR
B36: Annexin A1 binding polypeptide Number 41 (…) (peptide)
peptide: VRTDWYSMLM
B37: Annexin A1 binding polypeptide Number 42 (…) (peptide)
peptide: MIQTSSANRD
B38: Annexin A1 binding polypeptide Number 5 (LWGHHIW) (peptide)
peptide: LWGHHIW
B39: Annexin A1 binding polypeptide Number 6 (LWGHQIW) (peptide)
peptide: LWGHQIW
B40: Annexin A1 binding polypeptide Number 7 (LWGHGMW) (peptide)
peptide: LWGHGMW
B41: Annexin A1 binding polypeptide Number 8 (AWGHPFW) (peptide)
peptide: AWGHPFW

target: T1, Annexin A1; assay: phage ELISA, Annexin A1 immobilized on plate, anti-M13-HRP, OD450

binding, binds:
B1, B2, B3, B4, B5, B6, B7, B8, B9, B10, B11, B12, B13, B14, B15, B16, B17, B18, B19, B20, B21, B22, B23, B24, B25, B26, B27, B28, B29, B30, B31, B32, B33, B34, B35, B36, B37, B38, B39, B40, B41
